Laboratory results as given in paper PMC2677661.

Key:
DRIL1 wt [1] = molecular target: T1, DRIL1 wt (UniProt Q99856); test: EMSA with anti-DRIL1 supershift; settings: 5 ug nuclear proteins, 20 mM HEPES pH 7.9, 10 mM KCl, 0.2 mM EDTA, 20% glycerol, 1% acetylated BSA, 3 ug poly(dI-dC), 1 mM DTT, 1 mM PMSF, 30 min, room temperature; protein in a lysate after overexpression; label: 32P (Klenow end-fill with dATP and dCTP)
T1 sequence (looked up, limits assumed): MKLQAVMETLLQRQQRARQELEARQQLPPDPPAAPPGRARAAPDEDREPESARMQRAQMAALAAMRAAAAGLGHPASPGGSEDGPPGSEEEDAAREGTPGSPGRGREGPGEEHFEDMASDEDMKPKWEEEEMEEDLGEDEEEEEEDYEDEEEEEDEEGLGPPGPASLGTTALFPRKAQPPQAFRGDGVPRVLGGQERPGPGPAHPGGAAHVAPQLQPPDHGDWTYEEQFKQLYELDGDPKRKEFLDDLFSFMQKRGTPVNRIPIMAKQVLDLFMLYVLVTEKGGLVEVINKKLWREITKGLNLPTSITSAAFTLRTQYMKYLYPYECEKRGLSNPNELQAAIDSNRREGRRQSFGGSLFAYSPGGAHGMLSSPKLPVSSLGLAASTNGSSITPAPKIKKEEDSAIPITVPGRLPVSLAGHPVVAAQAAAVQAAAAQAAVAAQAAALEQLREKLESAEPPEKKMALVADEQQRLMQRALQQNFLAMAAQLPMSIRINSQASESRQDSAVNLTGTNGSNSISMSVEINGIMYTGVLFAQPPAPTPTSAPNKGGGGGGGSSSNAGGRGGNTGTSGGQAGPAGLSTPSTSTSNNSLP

[2] = molecular target: T2, DRIL1 Kx4R K126R,K398R,K399R,K452R (UniProt Q99856); test: EMSA with anti-DRIL1 supershift; settings: 5 ug nuclear proteins, 20 mM HEPES pH 7.9, 10 mM KCl, 0.2 mM EDTA, 20% glycerol, 1% acetylated BSA, 3 ug poly(dI-dC), 1 mM DTT, 1 mM PMSF, 30 min, room temperature; protein in a lysate after overexpression; label: 32P (Klenow end-fill with dATP and dCTP)
T2 sequence (looked up, limits assumed): T1 sequence (looked up, limits assumed) with K126R, K398R, K399R, K452R

DRIL1 K398R = molecular target: T3, DRIL1 K398R (UniProt Q99856); test: EMSA with anti-DRIL1 supershift; settings: 5 ug nuclear proteins, 20 mM HEPES pH 7.9, 10 mM KCl, 0.2 mM EDTA, 20% glycerol, 1% acetylated BSA, 3 ug poly(dI-dC), 1 mM DTT, 1 mM PMSF, 30 min, room temperature; protein in a lysate after overexpression; label: 32P (Klenow end-fill with dATP and dCTP)
T3 sequence (looked up, limits assumed): T1 sequence (looked up, limits assumed) with K398R

DRIL1 wt [3] = molecular target: T1, DRIL1 wt; test: EMSA; settings: SUMO1 co-expressed, binding unaffected; 5 ug nuclear proteins, 20 mM HEPES pH 7.9, 10 mM KCl, 0.2 mM EDTA, 20% glycerol, 1% acetylated BSA, 3 ug poly(dI-dC), 1 mM DTT, 1 mM PMSF, 30 min, room temperature; protein in a lysate after overexpression; label: 32P (Klenow end-fill with dATP and dCTP)

Measured: binding result

GGTTAACTTGTTAAATCACAATAAAATATTGAAGTGTTATCACATACACATACTAAACAATTTTCTAA (double strand) [TX125]
binds: all assays above

GGTTCCCCAAAATATAAGTATAAATATGTGCAAAACTTGTTTATTAACTTATTTATCTTAAAATCTGG (double strand) [Bf150]
binds: all assays above

Where a chain is given by its changes, count along the chain named. Construct, isoform or probe ends are uncertain for at least one entry. Where cells or extracts were used, other partners may take part. For some assays here: At least one verdict was read from the data and is not stated in words by the source. Protein sequences can lack the tags named with them.
